By UniProt entry, the sequences of proteins in these tests, tags left out.
UniProt P35462, whole entry, looked up: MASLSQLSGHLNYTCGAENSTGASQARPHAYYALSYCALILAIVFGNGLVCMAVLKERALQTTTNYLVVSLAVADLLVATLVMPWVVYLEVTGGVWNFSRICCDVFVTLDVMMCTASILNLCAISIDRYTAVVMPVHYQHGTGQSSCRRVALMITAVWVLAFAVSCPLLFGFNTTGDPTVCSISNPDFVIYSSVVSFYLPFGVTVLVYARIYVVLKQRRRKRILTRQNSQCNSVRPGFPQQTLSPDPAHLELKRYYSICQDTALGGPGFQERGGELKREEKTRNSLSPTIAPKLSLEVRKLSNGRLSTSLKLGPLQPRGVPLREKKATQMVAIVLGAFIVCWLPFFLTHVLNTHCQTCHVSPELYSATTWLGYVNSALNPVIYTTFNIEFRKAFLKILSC

In all, about 360,000 compounds went through this assay and about 9,100 (2.5%) were called active. Inconclusive results, whose numbers are uncertain, are shown with a selection of clear calls. Cut-off read from the data, not from the text of the source: active = max response below about -50%; inconclusive = no clear call, values can overlap the other calls; inactive = above that.
The compounds below were run against D(3) dopamine receptor (Homo sapiens) (UniProt P35462) (assay: qHTS of D3 Dopamine Receptor Antagonist: qHTS). Details: D3R cells, DiscoveRx beta-arrestin luminescence, antagonist mode; hits give low values.
How it was run: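 Cells expressing the human receptor were seeded at 1500 cells/well, incubated overnight at 37 degrees C in 5% CO2, then exposed to library compounds with dopamine controls for 90 minutes at 37 degrees C before luminescent detection.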
COC(=O)CSc1nc(C)cc(Oc2ccccc2)n1 was tested, and the max response, negative = inhibition was inconclusive: -37.1%. In the case of O=C(CN1C(=O)c2ccccc2S1(=O)=O)Nc1ncc([N+](=O)[O-])s1, the max response, negative = inhibition is reported as inconclusive: -33.5%. COc1cc(SC)ccc1C(=O)NCCNC(=O)c1nonc1N was tested, and the max response, negative = inhibition was inconclusive: -45.8%. In the case of CC1=CC(=NOC(=O)c2cccc([N+](=O)[O-])c2)C=C(C)C1=O, the max response, negative = inhibition is reported as inconclusive: -42%. For Cc1ccc(C(=O)NC(=S)Nc2cccc(NC(=O)c3ccccc3Cl)c2)cc1[N+](=O)[O-], the max response, negative = inhibition was inconclusive: -47.4%. CC1O[C@@H](OC2C(COC3OC(CO)C(O)[C@H](O)C3O)OC(OC3CC[C@]4(C)C(CC[C@@]5(C)[C@@H]4CC=C4[C@@H]6CC(C)(C)CC[C@]6(CO)C(O)C[C@]45C)C3(C)C)C(O)C2O)C(O)C(O)C1O (some centres not stated) was tested, and the max response, negative = inhibition was inactive: -2.52%. For CC(=O)OC1CCC2C3CCc4cc(O)ccc4C3CCC12C (configuration not stated), the max response, negative = inhibition was inactive: 30.1%. With Cc1ccc(NC(=S)NC2CCN(Cc3ccccc3)CC2)c(C)c1 the max response, negative = inhibition was inconclusive: -34.3%. For Cc1ccc(C(=S)N2CCN(Cc3ccccc3)CC2)cc1, the max response, negative = inhibition was active: -70.5%. With CCOC(=O)c1ccc(NC(=O)CN2CCc3ccccc3C2)cc1 the max response, negative = inhibition was active: -61.5%. In the case of COC(=O)[C@H](CCSC)NS(=O)(=O)c1ccccc1Br, the max response, negative = inhibition is reported as inconclusive: -32.5%. C=C1C(=O)OC2CC1C(O)CC(C)=CCCC(C)=CC(O)CC2C (configuration not stated) was tested, and the max response, negative = inhibition was inconclusive: -32.8%. With CSc1ncccc1C(=O)Nc1ccncc1 the max response, negative = inhibition was inactive: -3.7%. With COCCNC(=S)Nc1cc(OC)c(OC)cc1C#N the max response, negative = inhibition was active: -50.8%. In the case of CC(C)N1CCc2c(sc(NC(=O)c3cc4cc([N+](=O)[O-])ccc4s3)c2C(N)=O)C1, the max response, negative = inhibition is reported as inconclusive: -32.3%. For Cc1cc(=O)n(C)c(=O)n1CCCNc1ccccc1, the max response, negative = inhibition was inconclusive: -31.7%. For Cc1ccc(C2CC(=O)Nc3cc4c(cc32)OCO4)o1 (configuration not stated), the max response, negative = inhibition was inconclusive: -34.7%. For O=C1/C(=C/c2ccc([N+](=O)[O-])cc2)CCC1C1CCCC1 (configuration not stated), the max response, negative = inhibition was inactive: -14%. CC1(C(=O)NS(=O)(=O)c2ccccc2)CCN1C(=O)C1(c2ccc(Cl)cc2)CC1 (configuration not stated) was tested, and the max response, negative = inhibition was inconclusive: -34.9%. For C(=C\c1ccccc1)/CN1CCN(C(c2cc3ccccc3o2)c2nnnn2C2CCCC2)CC1 (configuration not stated), the max response, negative = inhibition was active: -98.4%. In the case of Cc1ccc2nc(-c3ccc4c(c3)OCCO4)cc(C(=O)O)c2c1, the max response, negative = inhibition is reported as inconclusive: -36.5%. In the case of CCOc1ccc(OCc2ccc(C(=O)N/N=C(\C)c3ccccn3)cc2)cc1, the max response, negative = inhibition is reported as active: -80.5%. In the case of Cc1ccc(Cn2c(SCC(C)C)nc3c2c(=O)n(C)c(=O)n3C)cc1, the max response, negative = inhibition is reported as inconclusive: -48.4%. With Cc1ccc(C(=O)NNC(=O)Cn2nnc3ccccc32)cc1 the max response, negative = inhibition was inactive: -11.8%. With CC(=O)Nc1ccc(-c2nnc(SCC(=O)c3ccc4c(c3)Cc3ccccc3-4)n2C)cc1 the max response, negative = inhibition was inactive: -4.83%. In the case of CSc1ccc(NC(=O)NCCCN2CCC(Cc3ccccc3)CC2)cc1, the max response, negative = inhibition is reported as inconclusive: -37.8%. For CCC(Cc1ccccc1)NC(=O)CCn1cccc1 (configuration not stated), the max response, negative = inhibition was inconclusive: -32.3%. In the case of CC(CNC(=S)Nc1cc(F)cc(F)c1)CSc1ccc(Cl)cc1 (configuration not stated), the max response, negative = inhibition is reported as inconclusive: -41.5%. CC(C)CC1C(C#N)=C(N)OC2=C1C(=O)CC(c1ccccc1)C2 (configuration not stated) was tested, and the max response, negative = inhibition was active: -63.2%. CCCOc1ccc(C(=O)CCN2CCCCC2)cc1 was tested, and the max response, negative = inhibition was inconclusive: -34.5%. CCC1CCCCN1CCCNC(=O)COc1cc(=O)n(C)c2ccccc12 (configuration not stated) was tested, and the max response, negative = inhibition was inconclusive: -37.6%. With COc1ccccc1Nc1nc(N)nc(CN2CCN(Cc3ccccc3)CC2)n1 the max response, negative = inhibition was inactive: -22.5%. For O=[N+]([O-])c1cc(C(F)(F)F)cc([N+](=O)[O-])c1NCc1cccnc1, the max response, negative = inhibition was inconclusive: -33.2%. In the case of O=C(CCc1ccccc1)N1CCN(S(=O)(=O)c2cccs2)CC1, the max response, negative = inhibition is reported as inconclusive: -34.5%. With CN(Cc1ccccc1)C(=O)CN1CCN(C(c2ccccc2)c2ccccc2)CC1 the max response, negative = inhibition was inconclusive: -49.8%. In the case of Nc1nc(=S)c2ncn([C@@H]3O[C@H](CO)[C@@H](O)[C@H]3O)c2[nH]1, the max response, negative = inhibition is reported as inactive: 6.58%. For CCc1nc(C)ccc1OCC(=O)NCCCN(C)C, the max response, negative = inhibition was inconclusive: -31.9%. Cc1ccc(S(=O)(=O)c2c(N)n(-c3ccccc3)c3nc4ccccc4nc23)cc1 was tested, and the max response, negative = inhibition was inactive: -28.6%. With CCC(C)(C)n1nnnc1C(C(C)C)N(CCN1CCOCC1)Cc1cc2cccc(C)c2[nH]c1=O (configuration not stated) the max response, negative = inhibition was inactive: 5.88%. In the case of COc1ccc(OCC(O)CN2CCN(c3ccc(Cl)cc3)CC2)cc1 (configuration not stated), the max response, negative = inhibition is reported as inconclusive: -44.6%. In the case of Cc1cccc(NC(=O)CSC(N)=O)c1C, the max response, negative = inhibition is reported as inconclusive: -34%. For Cn1c(N)c(C(C[N+](=O)[O-])c2ccccc2Cl)c(=O)n(C)c1=O (configuration not stated), the max response, negative = inhibition was inactive: 3.21%. C[C@@H]1COC(=O)[C@H](Cc2ccc(F)cc2)CC/C=C/C[C@@H](CC(=O)N[C@@H](CO)Cc2ccccc2)C(=O)N1 was tested, and the max response, negative = inhibition was inconclusive: -33.3%. For O=C(NC1CC2CCC(C1)N2Cc1ccccc1)c1cccc(F)c1 (configuration not stated), the max response, negative = inhibition was active: -117%. In the case of CCOC(=O)c1ccccc1N1C(=O)C2Sc3[nH]c(=O)sc3C(/C=C/c3ccccc3)C2C1=O (configuration not stated), the max response, negative = inhibition is reported as inconclusive: -45.8%. CC(C)c1ccc(OCC(=O)Nc2cccc(C(=O)Nc3ccccc3C(=O)O)c2)cc1 was tested, and the max response, negative = inhibition was inconclusive: -39.7%. For C[C@H]1CN([C@@H](C)CO)C(=O)CCCn2cc(nn2)CO[C@@H]1CN(C)S(=O)(=O)c1cccc(C#N)c1, the max response, negative = inhibition was inactive: 14.4%. For CCC1=[N+](CC(=O)c2ccc(Br)cc2)CCn2c(C)ccc21, the max response, negative = inhibition was inconclusive: -30.7%. In the case of CCOc1ccc(N/C(SCc2cccc([N+](=O)[O-])c2)=C(/C#N)C(N)=O)cc1, the max response, negative = inhibition is reported as inconclusive: -31.9%. With CN(CCNC(=O)C1CC(=O)N(c2ccc(F)c(Cl)c2)C1)Cc1ccccc1 (configuration not stated) the max response, negative = inhibition was inconclusive: -32.4%. In the case of Cc1ccsc1/C=N\NC(=O)c1cc(C(C)(C)C)[nH]n1, the max response, negative = inhibition is reported as active: -67.2%. For c1ccc2c(CSCCc3ccncc3)cccc2c1, the max response, negative = inhibition was inactive: -7.91%. For O=P(O)(CP(=O)(c1ccccc1)c1ccccc1)c1ccccc1, the max response, negative = inhibition was inconclusive: -33.9%. For CN1CCc2c(sc(NC(=O)c3ccc(C(=O)c4ccccc4)cc3)c2C(N)=O)C1, the max response, negative = inhibition was inconclusive: -31.4%. With O=C(c1cccs1)N1CC=C(c2ccccc2)CC1 the max response, negative = inhibition was inactive: 0.404%. In the case of Cc1n[nH]c(C)c1S(=O)(=O)N1CCCC(C(=O)Nc2nccs2)C1 (configuration not stated), the max response, negative = inhibition is reported as inactive: 14.4%. For Cn1c(CC(=O)Nc2ccc(F)cc2)c(Sc2ccccc2)c2ccccc21, the max response, negative = inhibition was inconclusive: -32.9%. For CCOCCCNC(=O)C(NC(=O)c1ccc(=O)[nH]c1)c1ccc(C)cc1 (configuration not stated), the max response, negative = inhibition was inconclusive: -38%. In the case of CN(C)CCN1CCN(C2CN(Cc3cn(Cc4ccc(Cl)cc4)nn3)S(=O)(=O)C2)CC1 (configuration not stated), the max response, negative = inhibition is reported as active: -50.6%. With Cc1ccc(Cl)cc1S(=O)(=O)N1CCC(C(=O)NC2CCN(Cc3ccccc3)CC2)CC1 the max response, negative = inhibition was inconclusive: -45.1%. For CCC(CC)COC(=O)C(C#N)c1nc2ccccc2nc1N1CCN(CC)CC1 (configuration not stated), the max response, negative = inhibition was inconclusive: -32.3%. For Oc1ccc(/C=N/N2CCN(C3c4ccccc4-c4ccccc43)CC2)c(O)c1, the max response, negative = inhibition was inactive: 1.45%. For CCN(CC(=O)Nc1ccccc1-c1ccccc1)Cc1nc2ccccc2c(=O)[nH]1, the max response, negative = inhibition was inactive: -4.99%. In the case of CCC1Nc2ncnc(N3CCN(c4ccccc4)CC3)c2N(Cc2ccc(OC)cc2)C1=O (configuration not stated), the max response, negative = inhibition is reported as active: -149%. CCNC(=O)CSc1nc2ccccc2c(=O)n1-c1cc(OC)ccc1OC was tested, and the max response, negative = inhibition was inconclusive: -45.5%. For CS(=O)(=O)N(CC(=O)O)c1ccc(Oc2ccccc2)cc1, the max response, negative = inhibition was inconclusive: -30.7%. For Cc1ccc(NC(=O)COc2cccc(Oc3ccccc3)c2)cc1S(=O)(=O)N1CCOCC1, the max response, negative = inhibition was inactive: 0.614%. CCOC(=O)c1c(NC(=O)CSc2ncccn2)sc2c1CCN(Cc1ccccc1)C2 was tested, and the max response, negative = inhibition was active: -81%. For CN1CCN(c2ccc(NC(=O)c3cccs3)cc2)CC1, the max response, negative = inhibition was inconclusive: -40.2%. With CCN(CC)c1ccc(CN2CCCCCC2)cc1 the max response, negative = inhibition was inconclusive: -37.8%. In the case of O=C(CCc1ccccc1)Nc1ccc(NC(=O)C2CC2)nc1, the max response, negative = inhibition is reported as inconclusive: -43%. O=C(c1cccc(Cl)c1)N1CCN(Cc2ccccc2F)CC1 was tested, and the max response, negative = inhibition was inconclusive: -43.6%. With CCCCc1ccc(NC(=O)N[C@H](C(=O)O)C(C)C)cc1 the max response, negative = inhibition was inconclusive: -46.7%. Cc1ccccc1NC(=O)OCc1cn(-c2ccc(Cl)cc2)nn1 was tested, and the max response, negative = inhibition was inconclusive: -35.4%. For O=C(Nc1cccc(Cl)c1)NC1CCN(C2CCCCC2)C1 (configuration not stated), the max response, negative = inhibition was active: -103%. COC(=O)c1ccc(-c2ccco2)n1Cc1cccc(C)c1 was tested, and the max response, negative = inhibition was inconclusive: -32.8%. With C=C(C)CC1Nc2ccccc2NC1CC(=C)C (configuration not stated) the max response, negative = inhibition was inactive: -5.01%. In the case of Cc1cc(C)cc(OCC(=O)OCc2cc([N+](=O)[O-])cc3c2OCOC3)c1, the max response, negative = inhibition is reported as inactive: 6%. O=C(NC1CCCC1)c1cccc(S(=O)(=O)N2CCCC2)c1 was tested, and the max response, negative = inhibition was inactive: -15.9%. CCC(C)(C)n1nnnc1C(c1ccccn1)N1CCN(c2cccc(OC)c2)CC1 (configuration not stated) was tested, and the max response, negative = inhibition was inconclusive: -39.2%. For CCCCCCCC1CC(CSC(=N)N)OC1=O (configuration not stated), the max response, negative = inhibition was inconclusive: -36.2%. COc1cccc(C(=O)Nc2ccc(-c3nc4ccccc4o3)c(O)c2)c1 was tested, and the max response, negative = inhibition was inactive: 11.5%. CC1=NN(C(N)=S)C(=O)C1N=Nc1c(Cl)cc([N+](=O)[O-])cc1Cl (configuration not stated) was tested, and the max response, negative = inhibition was inconclusive: -45.7%. In the case of CC(C)CCN(C(=S)Nc1cccc(F)c1)C1CCN(C(C)C)CC1, the max response, negative = inhibition is reported as inconclusive: -37.9%. COCCN(C(=O)CCl)C(C(=O)NC1CCCCC1)c1ccccc1C (configuration not stated) was tested, and the max response, negative = inhibition was inconclusive: -42.4%. With CC(C)c1ccc(NC(=O)COC(=O)CSc2nnc(N)s2)cc1 the max response, negative = inhibition was inactive: -21.6%. CC(C)NC(=O)c1cnc(N2CCN(c3ccccn3)CC2)c2ccccc12 was tested, and the max response, negative = inhibition was inactive: 26.7%.

From PubChem BioAssay AID652054 (National Center for Advancing Translational Sciences (NCATS), 2013)
% is set by controls: 0 for no effect and ±100 for the full control effect.
